Data on 61 molecules can be found in PubChem BioAssay AID2685 (National Center for Advancing Translational Sciences (NCATS), 2010).

In general, AC50 refers to the concentration at which the activity in the assay is half-maximal. Read a high AC50 as activity only at high concentration.

The structures appear in SMILES notation. Some of the results follow. These are further read-outs of the screen, such as a control signal, another cell line or another target. No call is given for them. Compounds called inactive in the main read-out are mostly missing here. Potencies come from curve fits of mixed quality, noted in brackets.

The nature of this assay: qHTS Assay for Lipid Storage Modulators in Drosophila S3 Cells.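 On cell number change: cells counted by Cell Tracker Red CMTPX staining in the red channel.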 The note with it: BODIPY lipid droplet fluorescence, 18-24 h; for cell number change: measured here: cell count max response, cells fed with added oleic acid. Put shortly: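 Drosophila S3 cells got compounds at several concentrations plus oleic acid (400 uM solution). Laser-scanning cytometry with 488 nm excitation read lipid droplets at 500-530 nm and cells at 575-640 nm. Percent activity was relative to 20 uM Triacsin C.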
(In general: In qHTS, concentration-response curves come from the screen itself.)

Where [1] appears, read: measured here: cell number channel AC50, cells fed with added oleic acid.
Where [2] appears, read: measured here: lipid fluorescence (Fed channel) AC50, cells fed with added oleic acid.

With `C=COC(=O)CSc1snc(SCC(=O)OC)c1C#N`, the cell number change is -50.4%. Further, the AC50 under setting [1] is 0.411 µM [falling, full curve]. Further, the concentration at half-maximal activity (AC50) under setting [2] was 3.66 µM [falling, full curve].
On to `O=C1NC2(CCCCCC2)C(=O)N1Cc1ccccc1Br`, for which the cell number change came to 24.6%. Besides, the AC50 under setting [2] was 18.4 µM [rising, partial curve].
Turning to `Cc1ncsc1C(=O)N1CCCC(C(=O)c2ccc3ccccc3c2)C1` (stereo not given), the cell number change came to 15.1%. Also, the concentration at half-maximal activity (AC50) under setting [2] is 1.3 µM [rising, partial curve].
`COc1c(Cl)cc(Cl)cc1CNCCO`: the cell number change was 2.76%. The AC50 under setting [2] is 5.17 µM [falling, single point].
Turning to `N#C/C(=C/c1ccccc1)C(=O)NCc1ccccc1`, the AC50 under setting [2] was 2.31 µM [falling, full curve].
`Cc1ccccc1C(=O)NCCCNC(=O)c1ccccn1`: the cell number change was determined as 9.52%. Moreover, under setting [2], the half-maximal activity concentration (AC50) was 14.6 µM [rising, single point].
In the case of `O=C(COc1ccccc1[N+](=O)[O-])NCc1cccnc1`, the cell number change is -36.7%. Besides, the concentration at half-maximal activity (AC50) under setting [1] was 5.8 µM [falling, partial curve].
For the molecule `CCCCn1nnnc1SCC(=O)NCc1ccccc1`, the cell number change is -8.27%. The half-maximal activity concentration (AC50) under setting [2] was 0.00517 µM [falling, full curve, poor fit].
As to `CCCCn1c(N)c(N(CCC(C)C)C(=O)c2ccc(C)c(S(=O)(=O)N3CCOCC3)c2)c(=O)[nH]c1=O`, the cell number change was -18.2%.
The same measure, in the same setting: as for `O=C(NC(=S)N1CCCc2ccccc21)c1ccc(Cl)cc1`, the figure is 0.94%.
Regarding `Cc1cc(C)c2[nH]c(=O)c(CN(Cc3cccs3)C(=S)NCc3ccco3)cc2c1`, the cell number change was determined as 4.35%. For the same molecule, the AC50 under setting [2] was 0.517 µM [rising, single point].
Turning to `Cc1nnc(NC(=O)c2cccc(S(=O)(=O)N(C)c3cccc(Cl)c3)c2)s1`, the cell number change was determined as 9.8%. Further, the half-maximal activity concentration (AC50) under setting [2] was 2.06 µM [rising, partial curve, poor fit].
As for `O=C(CCc1ccccc1)N1CCN(c2ccc([N+](=O)[O-])cc2)CC1`, the concentration at half-maximal activity (AC50) under setting [2] is 0.58 µM [rising, single point].
`CNS(=O)(=O)c1cccc(C(=O)OCC(=O)c2cc(C)n(CC3CCCO3)c2C)c1` (stereo not given): the cell number change is 2.76%. Under setting [2], the AC50 is 2.31 µM [rising, full curve, poor fit].
As to `Cc1ccc(C(=O)c2ccccc2C(=O)OCC(=O)NC(=O)NC(C)(C)C)cc1`, the cell number change was determined as 82.2%. For the same molecule, the concentration at half-maximal activity (AC50) under setting [1] was 23.1 µM [rising, partial curve].
Regarding `COc1ccc(Cl)cc1NC(=O)c1c(-c2ccccc2)noc1C`, the cell number change was -6.49%. Further, the AC50 under setting [2] was 3.66 µM [rising, full curve].
As to `O=C(OCCN1C(=O)c2cccc3c(N4CCOCC4)ccc(c23)C1=O)c1ccc(Cl)cc1`, the cell number change is -21.7%.
Still for that read-out and setting: next, `O=C(N/N=C/c1ccc([N+](=O)[O-])o1)c1cn(-c2ccccc2)nc1-c1ccc(F)cc1`: 6.69%.
Regarding `O=C(Nc1ccc(N2CCOCC2)c(Cl)c1)c1ccco1`, the cell number change was 12.3%. Moreover, the half-maximal activity concentration (AC50) under setting [2] is 7.31 µM [falling, partial curve].
On to `COC(=O)CC1(C(=O)OC)Oc2ccc(Br)cc2C(=O)N1c1ccc(Br)cc1Cl` (stereo not given), for which the cell number change was -39.5%. The AC50 under setting [1] was 18.4 µM [falling, single point]. For the same molecule, the half-maximal activity concentration (AC50) under setting [2] is 29.1 µM [falling, single point].
Take `CCC(=O)NC(=S)Nc1ccccc1F`: the cell number change was 0.586%. For the same molecule, the AC50 under setting [2] was 29.1 µM [falling, single point].
Take `COc1cc(/C=C(\C#N)C(=O)NC2CCCCC2)ccc1OCc1ccc(C(=O)O)cc1`: the cell number change is -20.6%. For the same molecule, the AC50 under setting [2] was 29.1 µM [falling, single point].
`COc1ccc(CC(=O)Oc2ccccc2[N+](=O)[O-])cc1`: the cell number change was -9.39%.
For `COc1ccc(-n2nc(C(=O)NCC3CCCO3)c3ccccc3c2=O)cc1` (stereo not given), the cell number change is -20%. Further, the AC50 under setting [2] was 29.1 µM [falling, single point].
As for `COc1ccccc1C(=O)Nc1ccc(Oc2ncnc3sc(-c4ccccc4)cc23)cc1`, the cell number change was found to be 1.13%.
In the case of `CCc1ccc(NC(=O)c2cc(C)no2)cc1`, the cell number change is -36%. Moreover, the AC50 under setting [1] is 29.1 µM [falling, single point].
As for `CN(C)CCCN(C(=O)c1ccc2c(c1)CCCC2)c1nc2ccc(F)cc2s1`, the cell number change is -39.8%. Also, the concentration at half-maximal activity (AC50) under setting [1] is 29.1 µM [falling, single point]. Besides, under setting [2], the AC50 is 29.1 µM [falling, single point].
As for `CCOC(=O)c1[nH]c2c(c1C)C(=O)CC(c1ccc(OC)c(OC)c1)C2` (stereo not given), the cell number change came out at 34.7%. Also, the half-maximal activity concentration (AC50) under setting [1] was 1.16 µM [rising, full curve]. Moreover, under setting [2], the AC50 was 1.03 µM [rising, single point].
`Cc1ccc(OCCn2cccn2)c(C)c1`: the cell number change is 27.6%. Further, under setting [2], the AC50 is 14.6 µM [rising, partial curve, poor fit].
With `CCN(CC)c1nc(Nc2ccccc2)nc(Oc2ccc(=O)n(C)n2)n1`, the cell number change is -14.6%.
Regarding `CCC(C)Sc1ccc([C@H]2N[C@@](CC(C)C)(C(=O)OC)[C@H]3C(=O)N(C)C(=O)[C@@H]23)cc1` (stereo not given in full), the cell number change is -78%. Besides, the half-maximal activity concentration (AC50) under setting [1] was 20.6 µM [falling, partial curve]. The AC50 under setting [2] was 2.91 µM [falling, partial curve, poor fit].
For `CC/C(=C\C1CCCCC1)C(NP(=O)(c1ccccc1)c1ccccc1)c1ccccc1` (stereo not given), the cell number change was -86.9%. The AC50 under setting [1] was 25.9 µM [falling, single point]. Under setting [2], the AC50 was 29.1 µM [falling, single point].
With `Cc1cc(C)c(C(N)=O)c(Cl)n1`, the cell number change was 54.8%. The AC50 under setting [1] was 0.651 µM [rising, full curve].
For the molecule `CCC(CO)Oc1cc(NCc2ccc(OC)cc2)c2ncn(C(C)C)c2c1` (stereo not given), the cell number change was -19.4%.
Same read-out and setting: next, `O=C(CCN1C(=O)CSC1=O)Nc1ccccc1`: 14.5%.
Consider `COc1cc(CN2CC(=O)N(c3ccc(C)c(Cl)c3)C2=S)cc(OC)c1OC`, for which the cell number change came to 18.1%. Further, under setting [2], the AC50 is 20.6 µM [rising, partial curve, poor fit].
Consider `Cc1cc(C(=O)N2CCCC(Nc3ccc(F)cc3)C2)n(C)n1` (stereo not given), for which the cell number change is 19.4%. Also, under setting [2], the AC50 was 0.103 µM [rising, full curve, poor fit].
As for `COc1ccc(C(=O)O)cc1N1C(=O)Nc2ccccc2N1O`, the cell number change is -46.7%.
On to `C=CCc1c(C)nc(SC(C)C)[nH]c1=O`, for which the cell number change was -9.4%. Besides, under setting [2], the AC50 was 0.13 µM [falling, full curve, poor fit].
Take `COc1ccc(-c2nnc3ccc(SCC(=O)NCc4ccco4)nn23)cc1OC`: the cell number change is -56.4%. In addition, the concentration at half-maximal activity (AC50) under setting [1] is 29.1 µM [falling, single point]. In addition, the AC50 under setting [2] was 0.82 µM [rising, single point].
As for `Cc1c(NC(=S)NC(=O)C(c2ccccc2)c2ccccc2)cccc1C(=O)O`, the cell number change is 8.23%. Also, the half-maximal activity concentration (AC50) under setting [2] was 29.1 µM [rising, single point].
For the molecule `COC(=O)c1cc(NC2c3ncccc3C(=O)N2Cc2ccccc2)cc(C(=O)OC)c1` (stereo not given), the cell number change was -10.5%. Besides, the AC50 under setting [2] is 0.731 µM [rising, single point].
In the case of `COc1ccc(OCC(=O)O/N=C(\N)Cc2ccc(Cl)cc2)cc1`, the cell number change amounted to 39.7%. The concentration at half-maximal activity (AC50) under setting [1] is 29.1 µM [rising, single point].
As to `N#Cc1nc(-c2ccccc2F)oc1NCCc1ccccc1`, the cell number change is -11.5%. For the same molecule, under setting [2], the half-maximal activity concentration (AC50) was 0.00517 µM [falling, full curve, poor fit].
As to `COC(=O)CSc1nnc(CNS(=O)(=O)c2ccc(C)cc2)n1C`, the cell number change was -8.92%.
In the case of `C#CCOCCOCCOCCNc1nc(N2CCN(C(=O)CCCCCCCCCCNC(=O)[C@H]([C@@H](C)CC)n3cc(CCCCCN)nn3)CC2)nc(N2CCN(C(=O)CCCCCCCCCCNC(=O)[C@H](CCCCN)n3cc(CCCC(=O)O)nn3)CC2)n1`, the cell number change was -53.7%. The AC50 under setting [1] was 1.03 µM [falling, full curve]. The AC50 under setting [2] is 0.92 µM [falling, full curve].
For `C/C(=N\NC(=O)c1ccccc1C)c1cccnc1`, the cell number change came to 13.3%. Moreover, under setting [2], the AC50 was 29.1 µM [rising, single point].
With `c1ccc(C[C@H]2CN=C(Nc3ccccc3)N2CCCC2CCCC2)cc1`, the cell number change was 12.6%. Under setting [2], the AC50 was 16.4 µM [falling, single point].
Regarding `COc1ccc(C(=O)/C=C/c2ccc(N3CCCCC3)c([N+](=O)[O-])c2)cc1`, the cell number change was -28.8%. The half-maximal activity concentration (AC50) under setting [2] is 14.6 µM [falling, single point].
On to `Cc1ccc(NC(=S)N(CCCN2CCN(C)CC2)Cc2cccs2)cc1C`, for which the cell number change is 10.7%. Besides, the AC50 under setting [2] is 5.8 µM [rising, partial curve].
Take `CCn1c(SCC(=O)c2ccccc2)nnc1-c1cccs1`: the cell number change amounted to 19.3%.
Take `O=C(CCc1nnc2ccc(NCc3ccc(F)cc3)nn12)NC1CCCC1`: the cell number change came to 16.5%. Also, under setting [2], the AC50 was 29.1 µM [falling, single point].
With `Cn1cnc2c(N3CCCCC3)nccc21`, the cell number change is -1.66%. Moreover, the AC50 under setting [1] is 0.411 µM [falling, full curve]. Moreover, the AC50 under setting [2] was 20.6 µM [falling, partial curve].
As for `O=S(=O)(CCc1ccncc1)C1Cc2cccc3cccc1c23` (stereo not given), the cell number change worked out at 41.2%. Under setting [1], the concentration at half-maximal activity (AC50) is 29.1 µM [rising, single point]. Further, the AC50 under setting [2] is 6.51 µM [rising, partial curve, poor fit].
For `Cc1ccc(Cn2nnc3c(=O)[nH]c(C4CCN(S(=O)(=O)Cc5ccccc5)CC4)nc32)cc1`, the cell number change stood at 2.94%.
`Cn1cc(Br)c(C(=O)NC(=S)Nc2ccc(S(N)(=O)=O)cc2)n1`: under setting [2], the AC50 was 29.1 µM [rising, single point].
With `Cc1c(-n2cc(C(=O)O)c(=O)c3cc(F)c(N4CCCC4)c(F)c32)c(=O)n(-c2ccccc2)n1C`, the cell number change was -0.753%.
In the case of `Cc1ccc(C2CC(C(F)(F)F)n3nc(C(=O)NCc4ccco4)cc3N2)cc1` (stereo not given), the cell number change was found to be 2.73%.
Turning to `CCOc1ccc(NC(=O)c2cccc3c2C(=O)N(Cc2cccnc2)C3)cc1`, the half-maximal activity concentration (AC50) was 2.31 µM [rising, partial curve] under setting [1] and 2.59 µM [rising, partial curve] under setting [2].
For `NNC(=O)c1csc(Cc2c(Cl)sc3ccc(Cl)cc23)n1`, the cell number change was -26.8%. Also, under setting [1], the AC50 is 0.00411 µM [falling, full curve, poor fit]. The AC50 under setting [2] was 0.058 µM [falling, full curve, poor fit].
Take `CCOC(=O)c1ccc2c(c1)[nH]c(=S)n2CC`: the cell number change amounted to 24.8%. Also, under setting [2], the AC50 is 5.17 µM [rising, partial curve, poor fit].
